# According to patent publication US10073099B2, “Methods and diagnostics for cancer detection and treatment monitoring” (University of New England, priority 2015, dated 2018):
# For at least one compound, name, drawing or mass did not settle the structure.
# Test: NOHA stability analysis by ELISA, plasma spiked with NOHA
# Format: physicochemical
# Settings: plasma spiked with 75 pg/ml NOHA, 7 days, 37° C., 4° C. and −80° C.
structure (smiles),measurement,value
"NC(=NCCC[C@H](N)C(=O)O)NO [NOHA, N^w-hydroxy-L-Arginine]",NOHA stability (measured as percentage recovery),no significant changes
